Our source for the binding values is paper PMC12199517.

The chains behind the UniProt entries cited, without tags or fusion partners.
UniProt Q8C6M1: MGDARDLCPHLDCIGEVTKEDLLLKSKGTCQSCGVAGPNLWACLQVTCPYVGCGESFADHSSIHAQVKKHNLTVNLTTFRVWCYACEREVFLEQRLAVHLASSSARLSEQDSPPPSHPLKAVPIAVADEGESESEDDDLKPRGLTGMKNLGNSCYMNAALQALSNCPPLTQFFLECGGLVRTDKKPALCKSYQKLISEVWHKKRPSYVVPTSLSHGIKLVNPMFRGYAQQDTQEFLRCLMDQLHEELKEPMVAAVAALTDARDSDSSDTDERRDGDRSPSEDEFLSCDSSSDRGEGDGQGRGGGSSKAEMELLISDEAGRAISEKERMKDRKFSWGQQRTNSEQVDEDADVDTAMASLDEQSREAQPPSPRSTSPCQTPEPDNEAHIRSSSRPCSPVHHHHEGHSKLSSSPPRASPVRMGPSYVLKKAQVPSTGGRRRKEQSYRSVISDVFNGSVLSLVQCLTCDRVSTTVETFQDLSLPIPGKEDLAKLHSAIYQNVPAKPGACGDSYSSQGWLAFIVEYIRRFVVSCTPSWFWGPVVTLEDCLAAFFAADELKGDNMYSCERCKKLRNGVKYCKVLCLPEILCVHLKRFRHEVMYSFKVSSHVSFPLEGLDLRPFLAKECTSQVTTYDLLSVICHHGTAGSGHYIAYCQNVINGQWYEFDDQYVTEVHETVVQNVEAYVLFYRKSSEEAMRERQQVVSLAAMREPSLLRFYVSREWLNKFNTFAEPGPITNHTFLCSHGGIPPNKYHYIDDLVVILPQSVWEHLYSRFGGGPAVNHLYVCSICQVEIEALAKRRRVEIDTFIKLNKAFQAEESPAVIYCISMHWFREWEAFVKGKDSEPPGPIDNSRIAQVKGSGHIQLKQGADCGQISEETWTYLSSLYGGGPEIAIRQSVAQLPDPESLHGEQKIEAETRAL
UniProt P42227: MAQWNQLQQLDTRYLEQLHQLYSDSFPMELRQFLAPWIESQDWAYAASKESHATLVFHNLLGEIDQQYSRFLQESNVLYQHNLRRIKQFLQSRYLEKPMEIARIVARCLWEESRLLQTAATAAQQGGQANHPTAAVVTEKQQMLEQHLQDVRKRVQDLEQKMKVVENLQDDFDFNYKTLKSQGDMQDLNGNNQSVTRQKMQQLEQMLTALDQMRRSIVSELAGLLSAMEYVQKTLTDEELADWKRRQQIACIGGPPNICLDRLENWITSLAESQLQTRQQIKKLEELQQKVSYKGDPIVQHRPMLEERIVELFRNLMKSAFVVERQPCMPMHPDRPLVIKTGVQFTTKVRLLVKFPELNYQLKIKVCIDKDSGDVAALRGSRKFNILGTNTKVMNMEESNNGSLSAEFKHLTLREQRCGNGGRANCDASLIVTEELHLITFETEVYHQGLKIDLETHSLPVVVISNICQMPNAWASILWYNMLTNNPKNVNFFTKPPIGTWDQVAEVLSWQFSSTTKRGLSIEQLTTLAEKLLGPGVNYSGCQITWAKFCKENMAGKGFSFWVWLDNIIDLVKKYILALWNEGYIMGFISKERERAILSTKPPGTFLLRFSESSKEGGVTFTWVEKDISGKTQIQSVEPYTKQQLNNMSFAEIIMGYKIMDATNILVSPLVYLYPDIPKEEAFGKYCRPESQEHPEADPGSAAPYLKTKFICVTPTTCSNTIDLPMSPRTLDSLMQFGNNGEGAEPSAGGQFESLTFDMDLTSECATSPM

These are yes or no findings as the source states them, for the method shown. Binding seen in cells or lysates may run through a third protein. A yes stands for co-enrichment or nearness to the bait. Other partners may have been found.

Experiment [1] concerns the target Flag‐USP20 (ubiquitin‐specific protease 20) (UniProt Q8C6M1). In words: affinity purification with mass spectrometry; Dataset I: HL‐1 cells transfected with Flag‐vector or Flag‐USP20, Ang II 1 µmol for 24 h; Co‐IP then LC‐MS/MS; proteins with a fold change greater than 2.0.
For experiment [2], the target named is USP20, endogenous in mouse heart tissue (mouse (endogenous in heart tissue)) (UniProt Q8C6M1). In words: affinity purification with mass spectrometry; Dataset II: lysed heart tissues from Ang II‐induced mice, divided into two portions; Co‐IP of USP20 then LC‐MS/MS; proteins with a fold change greater than 2.0.

For the molecule “STAT3, endogenous in mouse heart tissue and HL‐1 cells (from UniProt P42227 1-770)”, the binding result in experiment [1] and in experiment [2] was “binds” in each case.

B1: XRRA1 (protein, UniProt Q3U3V8 1-786)
chain: MVSSGMYKMDNGKPCLNNCFPAKSLLRLPEEGRGHWIVVRKGSMKKGAAKASTEGQESQKKVSFDTGLKKISRRDSQADVLGHILDRSFLLKHHSARKPSDLCTINVSGMKFSKAKEKDFKHFTSVIYINASENLLPLDVFHTFPVLKELELAFNGIKMVYVKYGDFKTLEFLDLSFNSLTEEAICDLGILPHLRVLLLTGNGLTSLPPNMAVKEQEASMTSLTSKKYILRFPALETLMLDDNKLSNPSCFASLAGLRRLKKLSLDQNKIVRIPYLQQIQLRDGSGDWVTEGPNPQKELQPQMWIFETPDEQPNYTVLPMKKDVDRTEVVFSSYPGFSTSETAKVCSLPPMFEILPVKSLKARNQTLAPPFPELRYLSLAYNKIAKEDAVLPAALFPSLCELVFHNNPLVAHTRGIPPLLKSFLQDRLGIRLVRKKLVKPKHHMLMPRKESRKVKTYIPKVPKHSLVPHHLNMITDSPPSSLMPEPEHSTEDTSHEALFANEGPEGPSLTHRAFVPMPPICSDSTVHSEAVSHQSHTAGLVSSEHPSDDDAKSTESIFLTQVNELPSSTAHRENLEAVNDQRRPSTAPRETKRTRRKQTATSLHNKYDGYEELLTVKPDPAFLEPKGIQKNAQALHRMLKQPLICRSSKPRLDTFQKPYVPKEKRAGRIPILPPRKTRAQLLDDILIRMRDPRNVTEAPLGTVLQRRAQQRLVNQKQYREAKRLLKEFRARYRQLVRSSLRTVFAASPPPRPPTRRALSAGQPKLGRFLEFMDEFCQEPTASDSKE
B1: the binding result in experiment [1] and in experiment [2] was “binds” each time.
